Values from PubChem BioAssay AID493246 (Drosophila RNAi Screening Center, 2011).
Screen: 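Genome-wide search for dsRNAs that reduce cell number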 (primary screen). Cells: Drosophila Kc and S2R+ cells. Reagent: long dsRNA against Drosophila genes. Measurement: 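Cell number per well after knock-down, printed as raw plate values; calls were based on per-plate z-scores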. Reading the numbers: Kc cell number and S2R+ cell number: higher = more cells remaining. Call rule: 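Counted as a hit if cell number falls by a z-score of at least 3 within its plate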.
The screen tested about 21,000 reagents; this is an unselected part of those with a known target gene and a result. Of all reagents, 429 (2%) got an active call. 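Values are raw and not normalised between plates; calls rest on per-plate z-scores that were not deposited.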 Reagent sequences are not shown. Not stated in the record: the amount of reagent, the time to read-out.

no.	predicted target	DRSC id	Kc cell number, rep 1	Kc cell number, rep 2	S2R+ cell number, rep 1	S2R+ cell number, rep 2	Outcome
1	CG15877 (GeneID 38304)	DRSC08485	1.43e6	1.33e6	9.97e5	1.23e6	inactive
2	CG2540 (GeneID 32216)	DRSC19856	5.72e5		9.44e5		inactive
3	Ugt50B3 (GeneID 246614)	DRSC04778	1.41e6	1.47e6	9.67e5	1.06e6	inactive
4	Ugt50B3 (GeneID 246614)	DRSC04779	1.39e6	1.52e6	9.62e5	1.05e6	inactive
5	FASN1 (GeneID 33524)	DRSC00268	1.17e6	1.17e6	8.10e5	9.35e5	inactive
6	CG43897 (GeneID 39153)	DRSC10965	1.53e6	1.42e6	9.36e5	9.84e5	inactive
7	CG43897 (GeneID 39153)	DRSC10967	1.34e6	1.26e6	1.28e6	1.33e6	inactive
8	CG7329 (GeneID 34457)	DRSC03046	1.69e6	1.71e6	1.20e6	1.34e6	inactive
9	CG13308 (GeneID 39011)	DRSC09979	1.31e6	1.21e6	1.21e6	1.23e6	inactive
10	bcd (GeneID 40830)	DRSC12624	1.56e6	1.61e6	1.30e6	1.40e6	inactive
11	CG1317 (GeneID 38300)	DRSC08305	1.44e6	1.50e6	1.23e6	1.28e6	inactive
12	RpL26 (GeneID 40060)	DRSC10726	9.21e5	1.03e6	6.91e5	8.06e5	active
13	CG32683 (GeneID 31970)	DRSC17990	1.46e6	1.51e6	9.88e5	1.11e6	inactive
14	CG32683 (GeneID 31970)	DRSC18232	1.66e6	1.61e6	1.05e6	1.18e6	inactive
15	CG32683 (GeneID 31970)	DRSC18233	1.80e6	1.70e6	1.08e6	1.18e6	inactive
16	Psc (GeneID 36431)	DRSC07518	1.49e6	1.46e6	1.15e6	1.34e6	inactive
17	RhoGEF2 (GeneID 36915)	DRSC07531	1.38e6	1.44e6	1.40e6	1.44e6	inactive
18	His4r (GeneID 41773)	DRSC16703	7.96e5	8.81e5	3.98e5	4.56e5	active
19	gskt (GeneID 318552)	DRSC14056	1.28e6	1.67e6	1.13e6	1.19e6	inactive
20	dib (GeneID 45282)	DRSC08711	1.33e6	1.40e6	1.22e6	1.23e6	inactive
21	Nost (GeneID 8673992)	DRSC18037	1.60e6	1.64e6	1.16e6	1.23e6	inactive
22	Nost (GeneID 8673992)	DRSC18338	1.59e6	1.62e6	1.14e6	1.23e6	inactive
23	CG33640 (GeneID 3772680)	DRSC01324	1.44e6	1.50e6	1.06e6	1.15e6	inactive
24	CG14346 (GeneID 33325)	DRSC00376	1.51e6	1.53e6	1.09e6	1.23e6	inactive

Ordered by “Kc cell number, rep 2” (lowest first): 6 of the entries above.
predicted target	DRSC id	Kc cell number, rep 1	Kc cell number, rep 2	S2R+ cell number, rep 1	S2R+ cell number, rep 2	Outcome
His4r (GeneID 41773)	DRSC16703	7.96e5	8.81e5	3.98e5	4.56e5	active
dib (GeneID 45282)	DRSC08711	1.33e6	1.40e6	1.22e6	1.23e6	inactive
RhoGEF2 (GeneID 36915)	DRSC07531	1.38e6	1.44e6	1.40e6	1.44e6	inactive
Psc (GeneID 36431)	DRSC07518	1.49e6	1.46e6	1.15e6	1.34e6	inactive
gskt (GeneID 318552)	DRSC14056	1.28e6	1.67e6	1.13e6	1.19e6	inactive
CG32683 (GeneID 31970)	DRSC18233	1.80e6	1.70e6	1.08e6	1.18e6	inactive

Further reagents follow.
no.	predicted target	DRSC id	Kc cell number, rep 1	Kc cell number, rep 2	S2R+ cell number, rep 1	S2R+ cell number, rep 2	Outcome
25	CG5808 (GeneID 42957)	DRSC14124	1.57e6	1.59e6	1.21e6	1.29e6	inactive
26	CG12643 (GeneID 50416)	DRSC17849	1.64e6	1.51e6	1.15e6	1.29e6	inactive
27	otp (GeneID 37364)	DRSC04050	1.46e6	1.59e6	1.24e6	4.20e5	inactive
28	otp (GeneID 37364)	DRSC04707	1.41e6	1.57e6	1.22e6	4.02e5	inactive
29	Naa30A (GeneID 31079)	DRSC18583	3.75e5		5.62e5		inactive
30	CG18870 (GeneID 59218)	DRSC04313	1.56e6	1.64e6	1.13e6	2.96e5	inactive
31	CG3939 (GeneID 31295)	DRSC18498	1.55e6	1.63e6	1.05e6	1.24e6	inactive
32	narya (GeneID 32932)	DRSC19439	1.67e6	1.74e6	1.17e6	1.31e6	inactive
33	amrt (GeneID 32342)	DRSC19378	1.56e6	1.56e6	9.81e5	1.06e6	inactive
34	Acox3 (GeneID 33898)	DRSC03251	1.44e6	1.30e6	1.14e6	1.28e6	inactive
35	lds (GeneID 45894)	DRSC16988	1.46e6	1.48e6	1.24e6	1.35e6	inactive
36	nAChRalpha2 (GeneID 42919)	DRSC17009	1.49e6	1.57e6	1.07e6	1.07e6	inactive
37	lcs (GeneID 33120)	DRSC20580	1.56e6	1.46e6	1.04e6	1.14e6	inactive
38	CG42232 (GeneID 7354465)	DRSC15018	1.57e6	1.62e6	1.20e6	1.23e6	inactive
39	CG42232 (GeneID 7354465)	DRSC15019	1.64e6	1.69e6	1.27e6	1.24e6	inactive
40	TM4SF (GeneID 37786)	DRSC04661	1.39e6	1.48e6	1.02e6	8.94e5	inactive
